Article PMC8269069
These are yes or no findings as the source states them, for the method shown. In cells and extracts the contact can be indirect. Some binding calls cover weakened binding; strength is not graded here.

Sequences of proteins named here, by UniProt entry; tags and fusion partners are left off.
UniProt P47941: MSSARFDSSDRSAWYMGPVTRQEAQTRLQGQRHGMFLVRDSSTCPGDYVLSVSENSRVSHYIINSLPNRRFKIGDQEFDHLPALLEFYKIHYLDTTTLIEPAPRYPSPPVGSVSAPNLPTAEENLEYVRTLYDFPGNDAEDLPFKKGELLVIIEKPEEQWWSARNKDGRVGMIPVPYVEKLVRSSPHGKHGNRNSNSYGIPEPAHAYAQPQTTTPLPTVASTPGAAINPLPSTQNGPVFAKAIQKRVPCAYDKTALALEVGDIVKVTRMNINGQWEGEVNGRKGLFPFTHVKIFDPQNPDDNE
UniProt Q08775: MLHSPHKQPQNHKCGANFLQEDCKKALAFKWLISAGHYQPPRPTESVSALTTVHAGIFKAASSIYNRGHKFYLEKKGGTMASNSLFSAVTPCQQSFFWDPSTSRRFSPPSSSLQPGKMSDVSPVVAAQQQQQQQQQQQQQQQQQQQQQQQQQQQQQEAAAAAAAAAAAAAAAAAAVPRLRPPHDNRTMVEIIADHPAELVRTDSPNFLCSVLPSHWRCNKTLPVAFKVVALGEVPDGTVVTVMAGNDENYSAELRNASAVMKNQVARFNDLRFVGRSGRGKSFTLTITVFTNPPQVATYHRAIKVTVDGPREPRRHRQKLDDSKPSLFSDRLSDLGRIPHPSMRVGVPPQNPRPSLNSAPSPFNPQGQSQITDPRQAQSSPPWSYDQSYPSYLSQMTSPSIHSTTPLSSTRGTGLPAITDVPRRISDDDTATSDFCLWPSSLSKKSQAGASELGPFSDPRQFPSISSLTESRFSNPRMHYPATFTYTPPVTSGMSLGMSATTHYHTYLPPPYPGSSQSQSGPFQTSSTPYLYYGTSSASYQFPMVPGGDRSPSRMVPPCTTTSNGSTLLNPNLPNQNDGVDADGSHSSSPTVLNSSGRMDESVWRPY

Molecular target: v-crk avian sarcoma virus CT10 oncogene homolog-like (CrkL) (UniProt P47941)
Experiment: co-IP; HEK-293T cells transfected with Runx2 or Runx2 and CrkL for 2 days; NP-40 lysis buffer (150 mM NaCl, 1 mM EDTA, 1% NP-40, 50 mM Tris-HCl pH 8.0); immunoprecipitation overnight with anti-FLAG M2 antibody and protein G; blots against FLAG and Runx2

**Q.** For “runt-related transcription factor 2 (Runx2) (from UniProt Q08775 1-607)”, which binding is on record?
**A.** binds
